For data set [1], the system named is Nrf2 CT/MafG 1-123 heterodimer. In words: EMSA. The settings on record: room temperature 20 min; purified recombinant protein; protein details: 6xHis on each, E. coli; label: 5' biotin (EMSA). A general note: A gel shift assay detects complexes by their altered migration in electrophoresis.
Data set [2] concerns the target MafG (endogenous, Hepa1 chromatin) (Mus musculus) (UniProt O54790). The data set is described as follows: binding assay. The settings on record: ChIP-qPCR, protein in cells, label: 5' biotin (EMSA).

The chains behind the UniProt entries cited, without tags or fusion partners. Where a name states a change or a piece, a line headed by the entry shows the natural chain unless it says otherwise.
UniProt O54790: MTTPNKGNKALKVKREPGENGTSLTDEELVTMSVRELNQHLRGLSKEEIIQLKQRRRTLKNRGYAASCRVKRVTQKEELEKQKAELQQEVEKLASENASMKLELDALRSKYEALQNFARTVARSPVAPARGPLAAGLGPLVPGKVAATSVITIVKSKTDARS

The source of these data is patent publication US20140364335.

For part of these data: Where cells or extracts were used, other partners may take part. For part of these data: Construct, isoform or probe ends are uncertain for at least one entry.

As to “TTGATAGTGAGGGGAACATGCTGACTCAGCAGCTCCGAATAA (double strand) [PGC-1beta intron ARE]”, the binding result in data set [1] and in data set [2] (strong) was “binds” each time.

In the case of “CACACCCTGCCCAGAGGCACACTTGCTGAGTCAGCACCCCGG (double strand) [Lipin1 intron ARE]”, the binding result in data set [1] and in data set [2] (strong) was “binds” throughout.

For “ACGCTCCTGCCGCTGAGCTGTGACTCAGCCAGAGAACTGAG (double strand) [Lipin1 promoter ARE]”, the binding result in data set [1] and in data set [2] was “binds” each time.
